Reference: PMC10584876
No constants are given. Whether binding was seen depends on the method and setting. Binding seen in cells or lysates may run through a third protein. Some entries that bind do so weakly or less than the wild type. Sequences can lack the tags named with a protein.

The chains behind the UniProt entries cited, without tags or fusion partners.
UniProt O18640: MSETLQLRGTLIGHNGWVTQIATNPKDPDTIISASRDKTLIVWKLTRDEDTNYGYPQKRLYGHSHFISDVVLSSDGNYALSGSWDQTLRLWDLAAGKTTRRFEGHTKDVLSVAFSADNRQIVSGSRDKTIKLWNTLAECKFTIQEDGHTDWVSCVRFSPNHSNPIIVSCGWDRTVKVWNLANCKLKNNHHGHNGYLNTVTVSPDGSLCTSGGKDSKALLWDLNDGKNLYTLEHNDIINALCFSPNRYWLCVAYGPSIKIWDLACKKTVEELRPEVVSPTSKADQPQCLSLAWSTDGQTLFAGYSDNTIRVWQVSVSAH

Target: T1, Cofilin-GFP (Drosophila) (UniProt P45594)
T1 sequence: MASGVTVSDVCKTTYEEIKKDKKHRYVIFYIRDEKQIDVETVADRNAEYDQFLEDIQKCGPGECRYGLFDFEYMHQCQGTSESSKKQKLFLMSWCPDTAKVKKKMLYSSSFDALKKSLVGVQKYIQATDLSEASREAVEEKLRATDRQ
Assay: co-IP; da-GAL4 > UAS-Cofilin-GFP adult head extracts, anti-GFP antibody, Protein A/G Agarose, western blot

binding: binds
Substance: RACK1 (Receptor for activated C kinase 1) (from UniProt O18640 1-318)
